Results reported in US8841462B2, “Bicyclic heterocycles as MEK kinase inhibitors” (priority 2008, dated 2014).
Some entries share one result that the patent states for a list of compounds.

The chains behind the UniProt entries cited, without tags or fusion partners.
UniProt Q02750, whole entry S218D/S222D: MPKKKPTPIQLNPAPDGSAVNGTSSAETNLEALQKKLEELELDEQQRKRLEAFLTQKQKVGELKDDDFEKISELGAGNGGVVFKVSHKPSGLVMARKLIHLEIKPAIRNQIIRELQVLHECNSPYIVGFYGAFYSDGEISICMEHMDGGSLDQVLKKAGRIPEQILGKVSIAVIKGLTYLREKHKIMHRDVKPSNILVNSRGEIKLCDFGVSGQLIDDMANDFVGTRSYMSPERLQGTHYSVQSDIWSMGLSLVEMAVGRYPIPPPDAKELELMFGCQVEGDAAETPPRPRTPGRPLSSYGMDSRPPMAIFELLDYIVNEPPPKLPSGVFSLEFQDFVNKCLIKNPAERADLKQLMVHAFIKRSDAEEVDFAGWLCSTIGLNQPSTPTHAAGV

Molecular target: Constitutively activated human mutant MEK1 (Homo sapiens, UniProt Q02750)
Experiment: MEK Assay (MEK activity assay)
Assay type: biochemical
Conditions: 15 nM MEK1, 50 μM ATP, GST-ERK1 substrate, 30 minutes, HTRF; read-out: IC50 in the MEK activity assay of EXAMPLE 1

IC50, < 100 nM:
O=C(NOC[C@H](O)CO)c1ccc2[nH]ncc2c1Nc1ccc(I)cc1F [Example 9, 4-(2-Fluoro-4-iodophenylamino)-1H-indazole-5-carboxylic acid ((R)-2,3-dihydroxy-propoxy)-amide]
O=C(NOC[C@H](O)CO)c1ccc2sncc2c1Nc1ccc(I)cc1F [Example 21, 4-(2-Fluoro-4-iodo-phenylamino)-benzo[d]isothiazole-5-carboxylic acid ((R)-2,3-dihydroxy-propoxy)-amide]
O=C(NOC[C@H](O)CO)c1ccc2cnsc2c1Nc1ccc(I)cc1F [Example 27, 7-(2-Fluoro-4-iodo-phenylamino)-benzo[d]isothiazole-6-carboxylic acid ((R)-2,3-dihydroxy-propoxy)amide]
C[C@H](O)CONC(=O)c1cnc2[nH]ncc2c1Nc1ccc(I)cc1F [Example 7, 4-(2-Fluoro-4-iodophenylamino)-1H-pyrazolo[3,4-b]pyridine 5-carboxylic acid ((S)-2-hydroxypropoxy)-amide]
CSc1ccc(Nc2c(C(=O)NOCCO)ccc3[nH]ncc23)c(F)c1 [Example 13, 4-(2-Fluoro-4-methylsulfanyl-phenylamino)-1H-indazole-5-carboxylic acid (2-hydroxy-ethoxy)-amide]
O=C(NOCCO)c1ccc2cnsc2c1Nc1ccc(Br)cc1F [Example 25, 7-(4-Bromo-2-fluoro-phenylamino)-benzo[d]isothiazole-6-carboxylic acid (2-hydroxy-ethoxy)-amide]
O=C(NOCCO)c1cnc2[nH]ncc2c1Nc1ccc(I)cc1F [Example 6, 4-(2-Fluoro-4-iodophenylamino)-1H-pyrazolo[3,4-b]pyridine 5-carboxylic acid (2-hydroxyethoxy)-amide]
C[C@H](O)CONC(=O)c1ccc2sncc2c1Nc1ccc(I)cc1F [Example 20, 4-(2-Fluoro-4-iodo-phenylamino)-benzo[d]isothiazole-5-carboxylic acid ((S)-2-hydroxy-propoxy)-amide]
CSc1ccc(Nc2c(C(=O)NOC[C@H](O)CO)ccc3cnsc23)c(F)c1 [Example 22, 7-(2-Fluoro-4-methylsulfanyl-phenylamino)-benzo[d]isothiazole-6-carboxylic acid ((R)-2,3-dihydroxy-propoxy)-amide]
O=C(NOC[C@H](O)CO)c1ccc2cnsc2c1Nc1ccc(C2CC2)cc1F [Example 23, 7-(4-Cyclopropyl-2-fluoro-phenylamino)-benzo[d]isothiazole-6-carboxylic acid ((R)-2,3-dihydroxy-propoxy)-amide]
O=C(NOCCO)c1ccc2sncc2c1Nc1ccc(I)cc1F [Example 12, 4-(2-Fluoro-4-iodo-phenylamino)-benzo[d]isothiazole-5-carboxylic acid (2-hydroxy-ethoxy)-amide]
CC(C)(CO)ONC(=O)c1cnc2[nH]ncc2c1Nc1ccc(I)cc1F [Example 8, 4-(2-Fluoro-4-iodophenylamino)-1H-pyrazolo[3,4-b]pyridine-5-carboxylic acid (2-hydroxy-1,1-dimethylethoxy)-amide]
